Laboratory results published in article doi:10.1101/650358.

Biological target: T1, Arabidopsis thaliana LONESOME HIGHWAY (AtLHW), BiFC fusion (Arabidopsis thaliana) (UniProt Q9XIN0)
T1 sequence: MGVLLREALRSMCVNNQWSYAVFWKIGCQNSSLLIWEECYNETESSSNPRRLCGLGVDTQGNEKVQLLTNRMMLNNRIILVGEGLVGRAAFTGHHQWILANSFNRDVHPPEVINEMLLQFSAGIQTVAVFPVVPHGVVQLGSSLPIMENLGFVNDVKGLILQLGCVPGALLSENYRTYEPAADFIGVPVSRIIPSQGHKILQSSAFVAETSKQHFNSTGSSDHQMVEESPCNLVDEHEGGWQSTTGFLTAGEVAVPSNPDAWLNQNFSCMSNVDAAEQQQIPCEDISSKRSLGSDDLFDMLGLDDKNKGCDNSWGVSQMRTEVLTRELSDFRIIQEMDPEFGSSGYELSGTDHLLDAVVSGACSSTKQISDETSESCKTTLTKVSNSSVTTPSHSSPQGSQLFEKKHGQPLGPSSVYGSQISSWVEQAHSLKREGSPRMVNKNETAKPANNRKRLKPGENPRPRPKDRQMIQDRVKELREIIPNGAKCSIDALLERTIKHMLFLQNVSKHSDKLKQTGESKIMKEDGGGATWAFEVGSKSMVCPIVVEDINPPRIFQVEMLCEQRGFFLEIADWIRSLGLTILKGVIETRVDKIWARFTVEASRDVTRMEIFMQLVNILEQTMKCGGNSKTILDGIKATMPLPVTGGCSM
Assay: split reporter

With “Klebsormidium nitens TMO5 ortholog (KnTMO5), BiFC fusion” the binding was “binds”.

No constants are given. Whether binding was seen depends on the method and setting. In cells and extracts the contact can be indirect. Binding can be weak; no strength is given. Where a sequence is shown, tags or fusion partners need not be part of it.
